Experimental data as given in publication PMC7819943, “Rice protein-binding microarrays: a tool to detect cis-acting elements near promoter regions in rice”.
This is one part of the list.

Each sequence was assayed against T1, OsSMF1 (Oryza sativa, UniProt Q6ZLB0 1-436) (assay: protein-binding microarray (RPBM); PBS, 2% BSA, 51.3 ng/ul salmon testes DNA, 50 uM zinc acetate, 200 nM TF, 25 C, 1 h; high values mean tight binding). Conditions: protein: recombinant; tags: N-terminal polyhistidine and DsRed monomer fusion (pET32a); chain copies: 2; label: CyDye5-dUTP incorporated in the synthesized complementary strand; 3' TTTTT single-stranded linker to array surface; dsDNA, one strand shown.
T1 sequence: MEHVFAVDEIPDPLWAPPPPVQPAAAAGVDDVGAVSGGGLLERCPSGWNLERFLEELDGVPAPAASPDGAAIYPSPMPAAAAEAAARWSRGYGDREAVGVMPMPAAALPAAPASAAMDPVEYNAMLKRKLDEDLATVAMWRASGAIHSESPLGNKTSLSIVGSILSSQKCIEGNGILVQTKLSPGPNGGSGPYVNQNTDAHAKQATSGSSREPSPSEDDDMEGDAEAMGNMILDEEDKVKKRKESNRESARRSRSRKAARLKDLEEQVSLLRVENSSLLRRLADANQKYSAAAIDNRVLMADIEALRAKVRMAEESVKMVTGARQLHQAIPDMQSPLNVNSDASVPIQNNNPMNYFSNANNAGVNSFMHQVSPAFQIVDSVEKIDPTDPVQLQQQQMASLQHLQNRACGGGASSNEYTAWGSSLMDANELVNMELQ
Procedure, shortened: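 The binding signal is fluorescence intensity per feature, in arbitrary units, read on an Axon 4000B scanner. Polyhistidine- and DsRed-tagged transcription factors (N-terminal fusions) from E. coli BL21-CodonPlus were purified on Ni–NTA and applied at 200 nM for 1 h at 25 °C to a double-stranded, BSA-blocked custom Agilent array in buffer with 50 µM zinc acetate.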

**Q.** “CAGCGACGTTATTGACGATAATACAGTCTACAGATTCCAGCGGAGTCACCTAGTGCAG” was tested. Which binding signal did it give?
**A.** 3390 fluorescence intensity (a.u.)

**Q.** How did the binding signal turn out when “GCCGCCGCCGCCGCCGCCGCCGCCGCGTCCGCTTCGACTCCGGAGTCACCTAGTGCAG” was run?
**A.** 3190 fluorescence intensity (a.u.)

**Q.** With “AAAGGCCTACAAATACCATGCACCAATGCAAAATATAGACCGGAGTCACCTAGTGCAG” as the sequence, how does the binding signal read?
**A.** 36800 fluorescence intensity (a.u.)

**Q.** For “CCACCACCACCACCACCATCATCTCCTCCTCCTCCGACGCCGGAGTCACCTAGTGCAG”, which binding signal is on record?
**A.** 3480 fluorescence intensity (a.u.)

**Q.** With “CAATCCAGATCAACCAGCAAATCATCCTCACATGCAAGCTCGGAGTCACCTAGTGCAG” as the sequence, how does the binding signal read?
**A.** 14800 fluorescence intensity (a.u.)

**Q.** How did the binding signal turn out when “CGTCTTCCCTTATCAGTTTAAACTGACGTAGATACGTACGCGGAGTCACCTAGTGCAG” was run?
**A.** 4710 fluorescence intensity (a.u.)

**Q.** How did the binding signal turn out when “GATGAGCCTCGTCTACGATCCCGTCAGCAACGACTATCGGCGGAGTCACCTAGTGCAG” was run?
**A.** 5680 fluorescence intensity (a.u.)

**Q.** “TTTTATTGTTAACTAGGCATGATTTTACGTGGAATCTTGTCGGAGTCACCTAGTGCAG” was tested. Which binding signal did it give?
**A.** 4390 fluorescence intensity (a.u.)

**Q.** Which binding signal does the source give for “CTTGGTCATTTCTCATTTGTGCGTCACGGAGTGAGCAGTGCGGAGTCACCTAGTGCAG” here?
**A.** 4370 fluorescence intensity (a.u.)

**Q.** How did the binding signal turn out when “ACCGAGTCCACGGAGCAGTGAGAGAGCCAGGCAGCCAGTGCGGAGTCACCTAGTGCAG” was run?
**A.** 3960 fluorescence intensity (a.u.)

**Q.** With “CCGCCTGCCAAAGCCTCCTGCGCCTCCGTCACCGACGCCGCGGAGTCACCTAGTGCAG” as the sequence, how does the binding signal read?
**A.** 4700 fluorescence intensity (a.u.)

**Q.** “ACTTAGTTTTCTTGTTTTGGAATTTTCTTAACTTTGTATTCGGAGTCACCTAGTGCAG” was tested. Which binding signal did it give?
**A.** 3180 fluorescence intensity (a.u.)

**Q.** Which binding signal does the source give for “CGACAACGATGGCTGCCTTGCCAAGTCATTATACATTAGACGGAGTCACCTAGTGCAG” here?
**A.** 5880 fluorescence intensity (a.u.)

**Q.** “ACAAAGATTCTCCACTAGCAGCTTGTGACAAGCATGCACACGGAGTCACCTAGTGCAG” was tested. Which binding signal did it give?
**A.** 3300 fluorescence intensity (a.u.)

**Q.** With “GTGCGAGCTGCGCCCGTGTGATGTGGGCGGGTGGGTGTTCCGGAGTCACCTAGTGCAG” as the sequence, how does the binding signal read?
**A.** 3660 fluorescence intensity (a.u.)

**Q.** With “ACTTCCATACTGGTGACGTCGCTGTTCCCGGACTACTACGCGGAGTCACCTAGTGCAG” as the sequence, how does the binding signal read?
**A.** 3870 fluorescence intensity (a.u.)

**Q.** With “GCTTGCTGGGACTCTTGTGGTCGACACCTGGCAACATATTCGGAGTCACCTAGTGCAG” as the sequence, how does the binding signal read?
**A.** 6760 fluorescence intensity (a.u.)

**Q.** For “AGATCTCCGTTCAAACATTCTGACTAGGATTGTGCACATTCGGAGTCACCTAGTGCAG”, which binding signal is on record?
**A.** 8800 fluorescence intensity (a.u.)

**Q.** “AAATGGCATGATTTTATTGCGGGGATTATTTATACATTTGCGGAGTCACCTAGTGCAG” was tested. Which binding signal did it give?
**A.** 12300 fluorescence intensity (a.u.)

**Q.** How did the binding signal turn out when “CAGGCTACAGGGCATTTGTGTCATTTTGCAAGAAGGCATACGGAGTCACCTAGTGCAG” was run?
**A.** 3380 fluorescence intensity (a.u.)

**Q.** For “ATGCATACGTGTGTCCCGTCTCTGCCTGCTGCTCTGTTCGCGGAGTCACCTAGTGCAG”, which binding signal is on record?
**A.** 7410 fluorescence intensity (a.u.)

**Q.** Which binding signal does the source give for “TAAATGGATCCCATTTGTCAGTCAAAATGATGCCACGTCACGGAGTCACCTAGTGCAG” here?
**A.** 26000 fluorescence intensity (a.u.)

**Q.** Which binding signal does the source give for “CGTCCAATAGGGTTCGAGGACGTCAGCAAGCCGGGCGTCGCGGAGTCACCTAGTGCAG” here?
**A.** 11900 fluorescence intensity (a.u.)

**Q.** Which binding signal does the source give for “TGCCGCCCGTCTCCGACGTCAGCCGGTTGCACCAATGCCACGGAGTCACCTAGTGCAG” here?
**A.** 5580 fluorescence intensity (a.u.)

**Q.** “TGACAACAACAAGCATATATTCTGATTTGGAGTCACAAGACGGAGTCACCTAGTGCAG” was tested. Which binding signal did it give?
**A.** 11600 fluorescence intensity (a.u.)

**Q.** How did the binding signal turn out when “AAGAAGGGCGCGCCCACGCGTGCGCACGTCGTCGTTGGCGCGGAGTCACCTAGTGCAG” was run?
**A.** 6000 fluorescence intensity (a.u.)

**Q.** How did the binding signal turn out when “CACACGACGCCGCCGCCGCCACGCGCGTCACGAAAACCCTCGGAGTCACCTAGTGCAG” was run?
**A.** 3160 fluorescence intensity (a.u.)

**Q.** For “ATCTTCACTGCATATCTACGTGGCATCCGGCTCGTAATATCGGAGTCACCTAGTGCAG”, which binding signal is on record?
**A.** 8700 fluorescence intensity (a.u.)

**Q.** With “CATCGATGTGTTTATTTTGAATGTTATATGAATGCCACCTCGGAGTCACCTAGTGCAG” as the sequence, how does the binding signal read?
**A.** 3390 fluorescence intensity (a.u.)

**Q.** For “CGGCGCTCACAAATTGTCGTCGTCACGAAATCGCAACCCTCGGAGTCACCTAGTGCAG”, which binding signal is on record?
**A.** 3500 fluorescence intensity (a.u.)

**Q.** With “ACCCTGCCACGTCATATCAAACGGCACATATCTCACAATCCGGAGTCACCTAGTGCAG” as the sequence, how does the binding signal read?
**A.** 18800 fluorescence intensity (a.u.)

**Q.** With “TTTGGTAGGGATGTTGTGTTTTCTTTGCGAACACCGGTGACGGAGTCACCTAGTGCAG” as the sequence, how does the binding signal read?
**A.** 3380 fluorescence intensity (a.u.)

**Q.** “CAGGGAGCTAGGCCGCCAGCGTGGGCAAGCACGCGCCCGCCGGAGTCACCTAGTGCAG” was tested. Which binding signal did it give?
**A.** 3400 fluorescence intensity (a.u.)

**Q.** “GACCGTGCCGTCGTAATCACACTGCCCTGCTGACTAATCTCGGAGTCACCTAGTGCAG” was tested. Which binding signal did it give?
**A.** 10000 fluorescence intensity (a.u.)

**Q.** “CTTTGTTTGTTCCATGTATAGGTGACTCGATGTCTCGGGACGGAGTCACCTAGTGCAG” was tested. Which binding signal did it give?
**A.** 3480 fluorescence intensity (a.u.)

**Q.** How did the binding signal turn out when “TGAAATCAGGTTTGAAATAAGTTCTTTAGGGTGCTTATTTCGGAGTCACCTAGTGCAG” was run?
**A.** 23000 fluorescence intensity (a.u.)

**Q.** With “TTCTTCGAGATCACCATGATTGAACGATCTCCGAGCTGCTCGGAGTCACCTAGTGCAG” as the sequence, how does the binding signal read?
**A.** 27800 fluorescence intensity (a.u.)

**Q.** For “GAGGAGGGAGGCGACGTCGCCCGTCTCTCCGCGTCGGCTCCGGAGTCACCTAGTGCAG”, which binding signal is on record?
**A.** 3490 fluorescence intensity (a.u.)

**Q.** “GAGTCGTCGCGGTCACTCGTCCGTATCTGCCTCGGTGGGGCGGAGTCACCTAGTGCAG” was tested. Which binding signal did it give?
**A.** 3920 fluorescence intensity (a.u.)

**Q.** “CCGGAAGCTCCCGTTCCAGCGGCTGGTGCGGGAGATCGCGCGGAGTCACCTAGTGCAG” was tested. Which binding signal did it give?
**A.** 30900 fluorescence intensity (a.u.)

**Q.** For “CCAAGATTTGTGCTATGTGACGTGGAGGGTGGAGATCATCCGGAGTCACCTAGTGCAG”, which binding signal is on record?
**A.** 13700 fluorescence intensity (a.u.)

**Q.** “GCCCATCCATCGCATTCGCGTTCGCAGGCACAAACCAAACCGGAGTCACCTAGTGCAG” was tested. Which binding signal did it give?
**A.** 27800 fluorescence intensity (a.u.)
